Results published in the supplement of paper PMC4604168 (melanoma cell lines).
The other results are listed elsewhere or left out. Many values rest on one well or one pass, so single values are uncertain.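 Imaging used 1,536-well plates; nuclei positive for cleaved PARP by antibody were divided by total DNA-stained nuclei to yield the apoptosis fraction. Doses for screening kept most cells viable, and cell lines differ markedly in resting and induced cleaved-PARP levels.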

Tests used:
Assay in all cases: cleaved PARP positive nuclei fraction relative to DMSO control; melanoma cells; higher = more apoptosis
Conditions in all cases: library dose: low library concentration; 72 h
501Mel = tested on: 501Mel
A101D = tested on: A101D
A2058 = tested on: A2058
A375 = tested on: A375
C32 = tested on: C32
CBRC008 = tested on: CBRC008 (line from a melanoma biopsy)
CBRC013 = tested on: CBRC013 (line from a melanoma biopsy)
CBRC014 = tested on: CBRC014 (line from a melanoma biopsy)
CBRC016 = tested on: CBRC016 (line from a melanoma biopsy)
CBRC017 = tested on: CBRC017 (line from a melanoma biopsy)

In the case of `N.N.[Cl][Pt][Cl]` [cisplatin] + CO[C@@H]1[C@H](N(C)C(=O)c2ccccc2)C[C@H]2O[C@]1(C)n1c3ccccc3c3c4c(c5c6ccccc6n2c5c31)C(=O)NC4 [Midostaurin] (first compound 1.6 µM, partner dose 0.08 µM), the “cleaved PARP positive nuclei fraction” value (501Mel) was 168%, the “cleaved PARP positive nuclei fraction” value (A101D) was 91.2% and the “cleaved PARP positive nuclei fraction” value (A2058) was 148%. The “cleaved PARP positive nuclei fraction” value (A375) was 117%, the “cleaved PARP positive nuclei fraction” value (C32) was 109% and the “cleaved PARP positive nuclei fraction” value (CBRC008) was 252%. For the same molecule, the “cleaved PARP positive nuclei fraction” value (CBRC013) was 67.3%, the “cleaved PARP positive nuclei fraction” value (CBRC014) was 210% and the “cleaved PARP positive nuclei fraction” value (CBRC016) was 356%. For the same molecule, the “cleaved PARP positive nuclei fraction” value (CBRC017) was 134%.
In the case of `Cn1cc(C2=C(c3cn(C4CCN(Cc5ccccn5)CC4)c4ccccc34)C(=O)NC2=O)c2ccccc21` [Enzastaurin] + O=C(Nc1cccc(Cl)c1)Nc1ncc(CCNc2ncnc3ccsc23)s1 [SNS314] (first compound 0.8 µM, partner dose 0.0008 µM), the “cleaved PARP positive nuclei fraction” value (501Mel) was 180%, the “cleaved PARP positive nuclei fraction” value (A101D) was 23.8% and the “cleaved PARP positive nuclei fraction” value (A2058) was 63.2%. For the same molecule, the “cleaved PARP positive nuclei fraction” value (A375) was 36.7%, the “cleaved PARP positive nuclei fraction” value (C32) was 77.8% and the “cleaved PARP positive nuclei fraction” value (CBRC008) was 99.9%. The “cleaved PARP positive nuclei fraction” value (CBRC013) was 102%, the “cleaved PARP positive nuclei fraction” value (CBRC014) was 83.8% and the “cleaved PARP positive nuclei fraction” value (CBRC016) was 300%. The “cleaved PARP positive nuclei fraction” value (CBRC017) was 75.9%.
With `C[C@]12O[C@H](C[C@]1(O)CO)n1c3ccccc3c3c4c(c5c6ccccc6n2c5c31)CNC4=O` [Lestaurtinib] + CN(NC(=O)CC(=O)NN(C)C(=S)c1ccccc1)C(=S)c1ccccc1 [STA4783] (first compound 0.004 µM, partner dose 0.006 µM) the “cleaved PARP positive nuclei fraction” value (501Mel) was 66.4%, the “cleaved PARP positive nuclei fraction” value (A101D) was 73.1% and the “cleaved PARP positive nuclei fraction” value (A2058) was 115%. The “cleaved PARP positive nuclei fraction” value (A375) was 64.4%, the “cleaved PARP positive nuclei fraction” value (C32) was 120% and the “cleaved PARP positive nuclei fraction” value (CBRC008) was 881%. The “cleaved PARP positive nuclei fraction” value (CBRC013) was 95.8%, the “cleaved PARP positive nuclei fraction” value (CBRC014) was 185% and the “cleaved PARP positive nuclei fraction” value (CBRC016) was 140%. The “cleaved PARP positive nuclei fraction” value (CBRC017) was 116%.
In the case of `Cn1cc(C2=C(c3cn(C4CCN(Cc5ccccn5)CC4)c4ccccc34)C(=O)NC2=O)c2ccccc21` [Enzastaurin] + COc1cc(Nc2ncc(F)c(Nc3ccc4c(n3)NC(=O)C(C)(C)O4)n2)cc(OC)c1OC [Tamatinib] (first compound 0.8 µM, partner dose 0.4 µM), the “cleaved PARP positive nuclei fraction” value (501Mel) was 324%, the “cleaved PARP positive nuclei fraction” value (A101D) was 133% and the “cleaved PARP positive nuclei fraction” value (A2058) was 141%. The “cleaved PARP positive nuclei fraction” value (A375) was 191%, the “cleaved PARP positive nuclei fraction” value (C32) was 75.6% and the “cleaved PARP positive nuclei fraction” value (CBRC008) was 143%. The “cleaved PARP positive nuclei fraction” value (CBRC013) was 53.3%, the “cleaved PARP positive nuclei fraction” value (CBRC014) was 91.7% and the “cleaved PARP positive nuclei fraction” value (CBRC016) was 93.2%. For the same molecule, the “cleaved PARP positive nuclei fraction” value (CBRC017) was 105%.
`C[As](C)SC[C@H](NC(=O)CC[C@H](N)C(=O)O)C(=O)NCC(=O)O` [Darinaparsin] + CC(C)(C)c1cnc(CSc2cnc(NC(=O)C3CCNCC3)s2)o1 [SNS-032] (first compound 0.4 µM, partner dose 0.01 µM) was tested, and the “cleaved PARP positive nuclei fraction” value (501Mel) was 147%, the “cleaved PARP positive nuclei fraction” value (A101D) was 83.9% and the “cleaved PARP positive nuclei fraction” value (A2058) was 155%. For the same molecule, the “cleaved PARP positive nuclei fraction” value (A375) was 108%, the “cleaved PARP positive nuclei fraction” value (C32) was 25.7% and the “cleaved PARP positive nuclei fraction” value (CBRC008) was 215%. The “cleaved PARP positive nuclei fraction” value (CBRC013) was 94.9%, the “cleaved PARP positive nuclei fraction” value (CBRC014) was 83.4% and the “cleaved PARP positive nuclei fraction” value (CBRC016) was 140%. For the same molecule, the “cleaved PARP positive nuclei fraction” value (CBRC017) was 78.2%.
For `C[As](C)SC[C@H](NC(=O)CC[C@H](N)C(=O)O)C(=O)NCC(=O)O` [Darinaparsin] + Cn1cncc1[C@@](N)(c1ccc(Cl)cc1)c1ccc2c(c1)c(-c1cccc(Cl)c1)cc(=O)n2C [tipifarnib] (first compound 0.4 µM, partner dose 0.01 µM), the “cleaved PARP positive nuclei fraction” value (501Mel) was 78%, the “cleaved PARP positive nuclei fraction” value (A101D) was 85.3% and the “cleaved PARP positive nuclei fraction” value (A2058) was 90.1%. For the same molecule, the “cleaved PARP positive nuclei fraction” value (A375) was 163%, the “cleaved PARP positive nuclei fraction” value (C32) was 75.2% and the “cleaved PARP positive nuclei fraction” value (CBRC008) was 128%. The “cleaved PARP positive nuclei fraction” value (CBRC013) was 114%, the “cleaved PARP positive nuclei fraction” value (CBRC014) was 94.8% and the “cleaved PARP positive nuclei fraction” value (CBRC016) was 49.9%. For the same molecule, the “cleaved PARP positive nuclei fraction” value (CBRC017) was 94.5%.
For `Cn1cc(C2=C(c3cn(C4CCN(Cc5ccccn5)CC4)c4ccccc34)C(=O)NC2=O)c2ccccc21` [Enzastaurin] + O=C(CCCCCCC(=O)Nc1ccccc1)NO [vorinostat] (first compound 0.8 µM, partner dose 0.08 µM), the “cleaved PARP positive nuclei fraction” value (501Mel) was 72.2%, the “cleaved PARP positive nuclei fraction” value (A101D) was 345% and the “cleaved PARP positive nuclei fraction” value (A2058) was 161%. The “cleaved PARP positive nuclei fraction” value (A375) was 124%, the “cleaved PARP positive nuclei fraction” value (C32) was 96.1% and the “cleaved PARP positive nuclei fraction” value (CBRC008) was 187%. For the same molecule, the “cleaved PARP positive nuclei fraction” value (CBRC013) was 45.5%, the “cleaved PARP positive nuclei fraction” value (CBRC014) was 93.4% and the “cleaved PARP positive nuclei fraction” value (CBRC016) was 103%. The “cleaved PARP positive nuclei fraction” value (CBRC017) was 99.3%.
`C[C@]12O[C@H](C[C@]1(O)CO)n1c3ccccc3c3c4c(c5c6ccccc6n2c5c31)CNC4=O` [Lestaurtinib] + NCC(=O)Nc1ccc(-n2nc(C(F)(F)F)cc2-c2ccc3c(ccc4ccccc43)c2)cc1 [OSU03012] (first compound 0.004 µM, partner dose 1 µM) was tested, and the “cleaved PARP positive nuclei fraction” value (501Mel) was 206%, the “cleaved PARP positive nuclei fraction” value (A101D) was 74.4% and the “cleaved PARP positive nuclei fraction” value (A2058) was 85%. The “cleaved PARP positive nuclei fraction” value (A375) was 3820%, the “cleaved PARP positive nuclei fraction” value (C32) was 56.8% and the “cleaved PARP positive nuclei fraction” value (CBRC008) was 95.6%. The “cleaved PARP positive nuclei fraction” value (CBRC013) was 85.1%, the “cleaved PARP positive nuclei fraction” value (CBRC014) was 190% and the “cleaved PARP positive nuclei fraction” value (CBRC016) was 129%. The “cleaved PARP positive nuclei fraction” value (CBRC017) was 109%.
In the case of `C[As](C)SC[C@H](NC(=O)CC[C@H](N)C(=O)O)C(=O)NCC(=O)O` [Darinaparsin] + CO[C@@H]1[C@H](N(C)C(=O)c2ccccc2)C[C@H]2O[C@]1(C)n1c3ccccc3c3c4c(c5c6ccccc6n2c5c31)C(=O)NC4 [Midostaurin] (first compound 0.4 µM, partner dose 0.08 µM), the “cleaved PARP positive nuclei fraction” value (501Mel) was 67.7%, the “cleaved PARP positive nuclei fraction” value (A101D) was 84.8% and the “cleaved PARP positive nuclei fraction” value (A2058) was 220%. The “cleaved PARP positive nuclei fraction” value (A375) was 137%, the “cleaved PARP positive nuclei fraction” value (C32) was 115% and the “cleaved PARP positive nuclei fraction” value (CBRC008) was 86.6%. The “cleaved PARP positive nuclei fraction” value (CBRC013) was 77.6%, the “cleaved PARP positive nuclei fraction” value (CBRC014) was 104% and the “cleaved PARP positive nuclei fraction” value (CBRC016) was 855%. For the same molecule, the “cleaved PARP positive nuclei fraction” value (CBRC017) was 75.4%.
In the case of `C[C@]12O[C@H](C[C@]1(O)CO)n1c3ccccc3c3c4c(c5c6ccccc6n2c5c31)CNC4=O` [Lestaurtinib] + CN(C)S(=O)(=O)c1ccc2c(c1)/C(=C/c1cc3c([nH]1)CCCC3)C(=O)N2 [SU6656] (first compound 0.004 µM, partner dose 0.4 µM), the “cleaved PARP positive nuclei fraction” value (501Mel) was 231%, the “cleaved PARP positive nuclei fraction” value (A101D) was 106% and the “cleaved PARP positive nuclei fraction” value (A2058) was 96.2%. The “cleaved PARP positive nuclei fraction” value (A375) was 41.9%, the “cleaved PARP positive nuclei fraction” value (C32) was 158% and the “cleaved PARP positive nuclei fraction” value (CBRC008) was 140%. For the same molecule, the “cleaved PARP positive nuclei fraction” value (CBRC013) was 148%, the “cleaved PARP positive nuclei fraction” value (CBRC014) was 82.9% and the “cleaved PARP positive nuclei fraction” value (CBRC016) was 61.2%. For the same molecule, the “cleaved PARP positive nuclei fraction” value (CBRC017) was 89.1%.
